No constants are given. Whether binding was seen depends on the method and setting. Where a sequence is shown, tags or fusion partners need not be part of it.
Key:
[1] = biological target: T1, human FCRL3 (MAIA) entire ectodomain, biotinylated, rat Cd4 domains 3 and 4 tagged (bait construct) (human) (UniProt Q96P31); experiment: AVEXIS (avidity-based extracellular interaction screening); biotinylated baits captured on streptavidin-coated 96-well plates; highly avid beta-lactamase-tagged preys (normalised conditioned medium) incubated 1 hour at room temperature; washes in PBS-T and PBS; nitrocefin hydrolysis read at 485 nm
T1 sequence (chain, enzymatically biotinylated (BirA) on the biotinylation target sequence): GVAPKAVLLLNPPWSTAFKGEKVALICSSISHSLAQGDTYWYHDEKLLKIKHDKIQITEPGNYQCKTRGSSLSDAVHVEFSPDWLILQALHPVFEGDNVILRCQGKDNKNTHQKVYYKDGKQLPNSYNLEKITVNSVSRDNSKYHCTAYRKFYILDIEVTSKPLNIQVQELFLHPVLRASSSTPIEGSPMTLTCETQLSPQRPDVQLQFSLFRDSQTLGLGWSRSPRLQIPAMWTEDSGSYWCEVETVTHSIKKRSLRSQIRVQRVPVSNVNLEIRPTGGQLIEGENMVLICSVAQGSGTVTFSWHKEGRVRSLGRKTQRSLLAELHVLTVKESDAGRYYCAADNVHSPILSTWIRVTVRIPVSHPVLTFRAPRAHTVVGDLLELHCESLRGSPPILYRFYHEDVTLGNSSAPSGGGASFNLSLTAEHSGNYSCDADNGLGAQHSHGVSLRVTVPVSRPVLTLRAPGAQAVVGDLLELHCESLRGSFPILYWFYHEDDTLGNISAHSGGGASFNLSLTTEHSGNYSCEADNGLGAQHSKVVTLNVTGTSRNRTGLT

Chains of the proteins cited; added tags and fusions are not shown. Residues count along the entry.
UniProt Q8IYV9, residues 22-285: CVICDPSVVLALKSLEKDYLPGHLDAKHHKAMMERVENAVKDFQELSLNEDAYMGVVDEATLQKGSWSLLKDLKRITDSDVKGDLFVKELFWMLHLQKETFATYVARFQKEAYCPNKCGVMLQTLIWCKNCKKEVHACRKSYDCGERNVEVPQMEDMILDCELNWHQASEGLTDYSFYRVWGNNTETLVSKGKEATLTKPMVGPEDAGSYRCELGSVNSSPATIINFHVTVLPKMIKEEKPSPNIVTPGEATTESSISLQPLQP
UniProt A6ND01, residues 20-231: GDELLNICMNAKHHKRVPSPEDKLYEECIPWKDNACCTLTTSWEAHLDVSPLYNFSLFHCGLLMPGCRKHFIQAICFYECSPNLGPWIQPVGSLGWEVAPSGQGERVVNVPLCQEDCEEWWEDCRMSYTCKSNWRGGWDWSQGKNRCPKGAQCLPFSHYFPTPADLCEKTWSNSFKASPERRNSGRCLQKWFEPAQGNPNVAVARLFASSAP

[2] = biological target: T2, FCRL3-TM-GFP: entire ectodomain of human FCRL3 with the rat CD200R transmembrane domain and cytoplasmic EGFP, on HEK293 cells (human) (UniProt Q96P31); experiment: cell-based binding assay (fluorescent avid probe on transfected cells, confocal microscopy); biotinylated monomeric IZUMO1 clustered around a streptavidin-phycoerythrin conjugate, incubated 1 hour at 37°C with transfected HEK293 cells showing the ectodomain as TM-GFP fusion; washed with DPBS, fixed with 4% formaldehyde
T2 sequence: T1 sequence (chain, enzymatically biotinylated (BirA) on the biotinylation target sequence)

[3] = biological target: T2, FCRL3-TM-GFP: entire ectodomain of human FCRL3 with the rat CD200R transmembrane domain and cytoplasmic EGFP, on HEK293 cells (human); experiment: cell-based binding assay (avid probe on transfected cells, confocal microscopy); JUNO ectodomain as a pentameric binding probe presented to transfected HEK293 cells showing the ectodomain as TM-GFP fusion

Substance	binding [1]	binding [2]	binding [3]
human IZUMO1 entire ectodomain, pentameric beta-lactamase-tagged prey (from UniProt Q8IYV9 22-285) (domain or fragment)	no binding		
human IZUMO1 entire ectodomain, biotinylated, rat Cd4 domains 3 and 4 tagged (bait construct) (from UniProt Q8IYV9 22-285) (domain or fragment)		no binding	
human JUNO entire ectodomain, pentameric beta-lactamase-tagged prey (from UniProt A6ND01 20-231) (domain or fragment)	no binding		no binding
